# Experimental data as given in the supplement of paper PMC8728848.
# This is one part of the list.
# B1: rPitB (Streptococcus pneumoniae), A0A0I7U739 (protein)
# chain: MSEIEIINAKKIYHDVPVIENLNITIPKGSLFTLLGASGCGKTTLLRMIAGFNSIKDGEFYFDDTKINNMEPSKRNIGLVFQNYAIFPHLTVRDNVAFGLMQKKVPKEELIQQTNKYLELMQIAQYAD
# Key:
# Assay in all cases: glycan array binding signal (z-score within array); higher = stronger binding
# Conditions in all cases: glycan notation: IUPAC condensed, linker removed
# [1] = target: Fuc(a1-2)[GalNAc(a1-3)]Gal(b1-4)GlcNAc(b1-3)GalNAc
# How it was run: (§1)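 From the Consortium for Functional Glycomics database, 3228 arrays were curated, keeping only those whose protein sequence was available. Binding is given as a within-array Z-score averaged across arrays sharing a protein sequence and across linkers. Negative Z-scores can be read as non-binding.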
# [2] = target: Fuc(a1-2)[GalNAc(a1-3)]Gal(b1-4)[Fuc(a1-3)]GlcNAc
# How it was run: as §1
# [3] = target: Fuc(a1-2)[GalNAc(a1-3)]Gal(b1-4)[Fuc(a1-3)]GlcNAc(b1-3)GalNAc
# How it was run: as §1
# [4] = target: Fuc(a1-2)[GalNAc(a1-4)]Gal(b1-4)GlcNAc
# How it was run: as §1
# [5] = target: Fuc(a1-2)[GalNAc(b1-3)]Gal
# How it was run: as §1
# [6] = target: Fuc(a1-3)GlcNAc
# How it was run: as §1
# [7] = target: Fuc(a1-3)[Gal(b1-4)]Glc6S
# How it was run: as §1
# [8] = target: Fuc(a1-3)[Gal(b1-4)]GlcNAc
# How it was run: as §1
# [9] = target: Fuc(a1-3)[Gal(b1-4)]GlcNAc(b1-2)Man(a1-3)[Fuc(a1-3)[Gal(b1-4)]GlcNAc(b1-2)Man(a1-6)]Man(b1-4)GlcNAc(b1-4)GlcNAc
# How it was run: as §1
# [10] = target: Fuc(a1-3)[Gal(b1-4)]GlcNAc(b1-2)Man(a1-3)[Fuc(a1-3)[Gal(b1-4)]GlcNAc(b1-2)Man(a1-6)]Man(b1-4)GlcNAc(b1-4)[Fuc(a1-6)]GlcNAc
# How it was run: as §1
# [11] = target: Fuc(a1-3)[Gal(b1-4)]GlcNAc(b1-3)Gal(b1-3)[Fuc(a1-4)]GlcNAc
# How it was run: as §1
# [12] = target: Fuc(a1-3)[Gal(b1-4)]GlcNAc(b1-3)GalNAc
# How it was run: as §1
# [13] = target: Fuc(a1-3)[Gal(b1-4)]GlcNAc(b1-4)Gal(b1-4)[Fuc(a1-3)]GlcNAc
# How it was run: as §1
# [14] = target: Fuc(a1-3)[Gal(b1-4)]GlcNAc(b1-4)Gal(b1-4)[Fuc(a1-3)]GlcNAc(b1-4)Gal(b1-4)[Fuc(a1-3)]GlcNAc
# How it was run: as §1
# [15] = target: Fuc(a1-3)[Gal(b1-4)]GlcNAc(b1-6)[Gal(b1-3)GlcNAc(b1-3)]Gal(b1-4)Glc
# How it was run: as §1
# [16] = target: Fuc(a1-3)[Gal(b1-4)]GlcNAc6S
# How it was run: as §1
# [17] = target: Fuc(a1-3)[Gal3S(b1-4)]GlcNAc
# How it was run: as §1
# [18] = target: Fuc(a1-3)[Gal3S(b1-4)]GlcNAc6S
# How it was run: as §1
# [19] = target: Fuc(a1-3)[GalNAc(b1-4)]GlcNAc
# How it was run: as §1
# [20] = target: Fuc(a1-4)GlcNAc
# How it was run: as §1
# [21] = target: Fuc(b1-3)GlcNAc
# How it was run: as §1
# [22] = target: Gal(a1-2)Gal
# How it was run: as §1
# [23] = target: Gal(a1-3)Gal
# How it was run: as §1
# [24] = target: Gal(a1-3)Gal(b1-3)GlcNAc
# How it was run: as §1
# [25] = target: Gal(a1-3)Gal(b1-3)GlcNAc(b1-2)Man(a1-3)[Gal(a1-3)Gal(b1-3)GlcNAc(b1-2)Man(a1-6)]Man(b1-4)GlcNAc(b1-4)GlcNAc
# How it was run: as §1
# [26] = target: Gal(a1-3)Gal(b1-3)GlcNAc(b1-3)GalNAc
# How it was run: as §1
# [27] = target: Gal(a1-3)Gal(b1-3)[Fuc(a1-4)]GlcNAc(b1-2)Man(a1-3)[Gal(a1-3)Gal(b1-3)[Fuc(a1-4)]GlcNAc(b1-2)Man(a1-6)]Man(b1-4)GlcNAc(b1-4)GlcNAc
# How it was run: as §1
# [28] = target: Gal(a1-3)Gal(b1-4)Glc
# How it was run: as §1
# [29] = target: Gal(a1-3)Gal(b1-4)GlcNAc
# How it was run: as §1
# [30] = target: Gal(a1-3)Gal(b1-4)GlcNAc(b1-3)GalNAc
# How it was run: as §1
# [31] = target: Gal(a1-3)Gal(b1-4)[Fuc(a1-3)]GlcNAc
# How it was run: as §1
# [32] = target: Gal(a1-3)Gal(b1-4)[Fuc(a1-3)]GlcNAc(b1-2)Man(a1-3)[Gal(a1-3)Gal(b1-4)[Fuc(a1-3)]GlcNAc(b1-2)Man(a1-6)]Man(b1-4)GlcNAc(b1-4)GlcNAc
# How it was run: as §1
# [33] = target: Gal(a1-3)GalNAc
# How it was run: as §1
# [34] = target: Gal(a1-3)[Gal(a1-4)]Gal(b1-4)GlcNAc
# How it was run: as §1
# [35] = target: Gal(a1-4)Gal(b1-3)GlcNAc(b1-2)Man(a1-3)[Gal(a1-4)Gal(b1-3)GlcNAc(b1-2)Man(a1-6)]Man(b1-4)GlcNAc(b1-4)GlcNAc
# How it was run: as §1
# [36] = target: Gal(a1-4)Gal(b1-4)Glc
# How it was run: as §1
# [37] = target: Gal(a1-4)Gal(b1-4)GlcNAc
# How it was run: as §1
# [38] = target: Gal(a1-4)Gal(b1-4)GlcNAc(b1-2)Man(a1-3)[Gal(a1-4)Gal(b1-4)GlcNAc(b1-2)Man(a1-6)]Man(b1-4)GlcNAc(b1-4)GlcNAc
# How it was run: as §1
# [39] = target: Gal(a1-4)Gal(b1-4)GlcNAc(b1-3)Gal(b1-4)Glc
# How it was run: as §1
# [40] = target: Gal(a1-4)GlcNAc
# How it was run: as §1
# [41] = target: Gal(a1-6)Glc
# How it was run: as §1
# [42] = target: Gal(b1-2)Gal
# How it was run: as §1
# [43] = target: Gal(b1-3)Gal
# How it was run: as §1
# [44] = target: Gal(b1-3)Gal(b1-4)GlcNAc
# How it was run: as §1
# [45] = target: Gal(b1-3)Gal(b1-4)GlcNAc(b1-2)Man(a1-3)[Gal(b1-3)Gal(b1-4)GlcNAc(b1-2)Man(a1-6)]Man(b1-4)GlcNAc(b1-4)GlcNAc
# How it was run: as §1
binder,measurement,setting,value
B1,glycan array binding signal (z-score),[1],-0.706
same,glycan array binding signal (z-score),[2],-0.499
same,glycan array binding signal (z-score),[3],0.771
same,glycan array binding signal (z-score),[4],0.875
same,glycan array binding signal (z-score),[5],-0.231
same,glycan array binding signal (z-score),[6],1
same,glycan array binding signal (z-score),[7],-0.329
same,glycan array binding signal (z-score),[8],0.422
same,glycan array binding signal (z-score),[9],-0.339
same,glycan array binding signal (z-score),[10],1.09
same,glycan array binding signal (z-score),[11],0.092
same,glycan array binding signal (z-score),[12],0.108
same,glycan array binding signal (z-score),[13],1.25
same,glycan array binding signal (z-score),[14],3.03
same,glycan array binding signal (z-score),[15],-0.293
same,glycan array binding signal (z-score),[16],-0.514
same,glycan array binding signal (z-score),[17],-0.426
same,glycan array binding signal (z-score),[18],0.928
same,glycan array binding signal (z-score),[19],0.122
same,glycan array binding signal (z-score),[20],-0.579
same,glycan array binding signal (z-score),[21],-0.161
same,glycan array binding signal (z-score),[22],-0.313
same,glycan array binding signal (z-score),[23],-1.07
same,glycan array binding signal (z-score),[24],-0.408
same,glycan array binding signal (z-score),[25],1.52
same,glycan array binding signal (z-score),[26],0.498
same,glycan array binding signal (z-score),[27],0.372
same,glycan array binding signal (z-score),[28],-0.617
same,glycan array binding signal (z-score),[29],0.196
same,glycan array binding signal (z-score),[30],0.528
same,glycan array binding signal (z-score),[31],-0.839
same,glycan array binding signal (z-score),[32],0.572
same,glycan array binding signal (z-score),[33],-0.409
same,glycan array binding signal (z-score),[34],0.488
same,glycan array binding signal (z-score),[35],0.766
same,glycan array binding signal (z-score),[36],1.33
same,glycan array binding signal (z-score),[37],-0.022
same,glycan array binding signal (z-score),[38],1.43
same,glycan array binding signal (z-score),[39],-0.665
same,glycan array binding signal (z-score),[40],0.017
same,glycan array binding signal (z-score),[41],-0.354
same,glycan array binding signal (z-score),[42],-1.01
same,glycan array binding signal (z-score),[43],0.268
same,glycan array binding signal (z-score),[44],0.386
same,glycan array binding signal (z-score),[45],-0.088

# Some of the entries so far, bar-delimited:
binder | measurement | setting | value
B1 | glycan array binding signal (z-score) | [3] | 0.771
same | glycan array binding signal (z-score) | [39] | -0.665
